Drawing on article PMC5230776, this text covers binding for two substances.

By UniProt entry, the sequences of proteins in these tests, tags left out.
UniProt P46934: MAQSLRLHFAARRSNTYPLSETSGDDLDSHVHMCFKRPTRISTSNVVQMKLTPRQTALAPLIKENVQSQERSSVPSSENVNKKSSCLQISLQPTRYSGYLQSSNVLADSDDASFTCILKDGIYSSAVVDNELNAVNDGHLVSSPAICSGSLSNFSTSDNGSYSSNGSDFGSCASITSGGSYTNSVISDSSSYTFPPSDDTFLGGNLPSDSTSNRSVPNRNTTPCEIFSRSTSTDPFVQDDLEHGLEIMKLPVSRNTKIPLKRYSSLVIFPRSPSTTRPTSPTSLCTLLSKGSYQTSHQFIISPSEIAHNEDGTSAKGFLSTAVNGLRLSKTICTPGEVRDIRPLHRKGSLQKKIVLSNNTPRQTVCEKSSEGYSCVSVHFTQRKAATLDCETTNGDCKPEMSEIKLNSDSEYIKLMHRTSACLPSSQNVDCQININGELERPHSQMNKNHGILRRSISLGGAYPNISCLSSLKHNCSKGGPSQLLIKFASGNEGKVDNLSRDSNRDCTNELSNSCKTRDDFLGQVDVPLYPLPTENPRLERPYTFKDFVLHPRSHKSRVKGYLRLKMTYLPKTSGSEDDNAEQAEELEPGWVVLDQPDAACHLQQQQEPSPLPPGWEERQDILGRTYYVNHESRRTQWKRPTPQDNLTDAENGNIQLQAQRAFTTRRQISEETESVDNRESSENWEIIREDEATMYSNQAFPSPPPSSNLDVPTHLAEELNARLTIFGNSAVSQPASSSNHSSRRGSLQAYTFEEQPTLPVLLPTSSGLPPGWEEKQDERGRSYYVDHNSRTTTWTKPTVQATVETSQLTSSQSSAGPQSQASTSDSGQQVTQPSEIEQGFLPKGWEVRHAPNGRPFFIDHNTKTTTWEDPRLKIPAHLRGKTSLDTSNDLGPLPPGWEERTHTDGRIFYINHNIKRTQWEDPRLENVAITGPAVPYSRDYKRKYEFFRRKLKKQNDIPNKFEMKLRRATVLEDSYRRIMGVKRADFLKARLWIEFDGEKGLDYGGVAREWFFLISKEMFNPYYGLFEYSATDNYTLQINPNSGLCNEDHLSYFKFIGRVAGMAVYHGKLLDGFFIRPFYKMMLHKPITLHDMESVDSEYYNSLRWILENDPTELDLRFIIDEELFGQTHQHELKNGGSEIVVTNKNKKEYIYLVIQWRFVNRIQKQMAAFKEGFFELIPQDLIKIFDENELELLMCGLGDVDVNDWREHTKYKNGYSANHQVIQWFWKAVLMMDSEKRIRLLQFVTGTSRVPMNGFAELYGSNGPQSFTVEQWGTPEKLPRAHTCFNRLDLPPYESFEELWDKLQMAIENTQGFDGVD
UniProt P98170: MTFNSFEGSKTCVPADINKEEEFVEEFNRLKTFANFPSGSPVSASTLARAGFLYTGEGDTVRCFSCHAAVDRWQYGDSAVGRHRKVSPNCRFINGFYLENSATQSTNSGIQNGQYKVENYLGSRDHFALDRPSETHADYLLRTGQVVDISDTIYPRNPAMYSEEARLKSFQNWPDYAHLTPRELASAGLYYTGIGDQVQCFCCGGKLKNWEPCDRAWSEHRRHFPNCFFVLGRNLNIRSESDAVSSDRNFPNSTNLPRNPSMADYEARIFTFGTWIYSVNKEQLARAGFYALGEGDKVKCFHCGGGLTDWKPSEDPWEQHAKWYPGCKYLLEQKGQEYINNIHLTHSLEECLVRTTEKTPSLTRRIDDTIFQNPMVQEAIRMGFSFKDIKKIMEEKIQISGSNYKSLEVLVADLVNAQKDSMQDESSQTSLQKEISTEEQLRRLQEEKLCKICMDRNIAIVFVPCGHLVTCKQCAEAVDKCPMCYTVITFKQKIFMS

The target of this assay is T1, Trx(C35S), thioredoxin trap mutant (human) (UniProt P10599).
T1 sequence: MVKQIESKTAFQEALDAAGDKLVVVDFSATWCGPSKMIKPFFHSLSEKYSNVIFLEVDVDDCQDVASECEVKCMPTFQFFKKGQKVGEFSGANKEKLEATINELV
Kind of assay: affinity purification with mass spectrometry; Trx(C35S) (50 ug, scaled up 4-fold for proteomics) loaded on streptavidin agarose beads, incubated 1 h at 4°C with digitonin lysates of A549 cells (treated with 500 uM CysNO for 10 min, or LPS/TNFα/IFN-γ/IL-1β for 72 h, or untreated); mixed-disulfide trapping quenched with NEM; washes with 1 M NaCl and 1% Triton X-100; elution with 20 mM DTT; LC-MS/MS; only the target purified.

Results are given in words; binding and its absence hold for the method and conditions named. Binding seen in cells or lysates may run through a third protein. These calls come from enrichment with a bait or labelling near it, and not all partners need be listed.

Consider “NEDD4, S-nitrosylated (from UniProt P46934 1-1319)”, for which the binding entry is recorded as “binds”.

As to “XIAP, S-nitrosylated (from UniProt P98170 1-497)”, the binding entry was “binds”.
